Source: paper PMC12528347
These are yes or no findings as the source states them, for the method shown. In cells and extracts the contact can be indirect. Some results given as binding are weak or reduced against the parent protein; the word gives no strength.

Sequences of proteins named here, by UniProt entry; tags and fusion partners are left off. Residues count along the entry.
UniProt P46531, residues 19-2555: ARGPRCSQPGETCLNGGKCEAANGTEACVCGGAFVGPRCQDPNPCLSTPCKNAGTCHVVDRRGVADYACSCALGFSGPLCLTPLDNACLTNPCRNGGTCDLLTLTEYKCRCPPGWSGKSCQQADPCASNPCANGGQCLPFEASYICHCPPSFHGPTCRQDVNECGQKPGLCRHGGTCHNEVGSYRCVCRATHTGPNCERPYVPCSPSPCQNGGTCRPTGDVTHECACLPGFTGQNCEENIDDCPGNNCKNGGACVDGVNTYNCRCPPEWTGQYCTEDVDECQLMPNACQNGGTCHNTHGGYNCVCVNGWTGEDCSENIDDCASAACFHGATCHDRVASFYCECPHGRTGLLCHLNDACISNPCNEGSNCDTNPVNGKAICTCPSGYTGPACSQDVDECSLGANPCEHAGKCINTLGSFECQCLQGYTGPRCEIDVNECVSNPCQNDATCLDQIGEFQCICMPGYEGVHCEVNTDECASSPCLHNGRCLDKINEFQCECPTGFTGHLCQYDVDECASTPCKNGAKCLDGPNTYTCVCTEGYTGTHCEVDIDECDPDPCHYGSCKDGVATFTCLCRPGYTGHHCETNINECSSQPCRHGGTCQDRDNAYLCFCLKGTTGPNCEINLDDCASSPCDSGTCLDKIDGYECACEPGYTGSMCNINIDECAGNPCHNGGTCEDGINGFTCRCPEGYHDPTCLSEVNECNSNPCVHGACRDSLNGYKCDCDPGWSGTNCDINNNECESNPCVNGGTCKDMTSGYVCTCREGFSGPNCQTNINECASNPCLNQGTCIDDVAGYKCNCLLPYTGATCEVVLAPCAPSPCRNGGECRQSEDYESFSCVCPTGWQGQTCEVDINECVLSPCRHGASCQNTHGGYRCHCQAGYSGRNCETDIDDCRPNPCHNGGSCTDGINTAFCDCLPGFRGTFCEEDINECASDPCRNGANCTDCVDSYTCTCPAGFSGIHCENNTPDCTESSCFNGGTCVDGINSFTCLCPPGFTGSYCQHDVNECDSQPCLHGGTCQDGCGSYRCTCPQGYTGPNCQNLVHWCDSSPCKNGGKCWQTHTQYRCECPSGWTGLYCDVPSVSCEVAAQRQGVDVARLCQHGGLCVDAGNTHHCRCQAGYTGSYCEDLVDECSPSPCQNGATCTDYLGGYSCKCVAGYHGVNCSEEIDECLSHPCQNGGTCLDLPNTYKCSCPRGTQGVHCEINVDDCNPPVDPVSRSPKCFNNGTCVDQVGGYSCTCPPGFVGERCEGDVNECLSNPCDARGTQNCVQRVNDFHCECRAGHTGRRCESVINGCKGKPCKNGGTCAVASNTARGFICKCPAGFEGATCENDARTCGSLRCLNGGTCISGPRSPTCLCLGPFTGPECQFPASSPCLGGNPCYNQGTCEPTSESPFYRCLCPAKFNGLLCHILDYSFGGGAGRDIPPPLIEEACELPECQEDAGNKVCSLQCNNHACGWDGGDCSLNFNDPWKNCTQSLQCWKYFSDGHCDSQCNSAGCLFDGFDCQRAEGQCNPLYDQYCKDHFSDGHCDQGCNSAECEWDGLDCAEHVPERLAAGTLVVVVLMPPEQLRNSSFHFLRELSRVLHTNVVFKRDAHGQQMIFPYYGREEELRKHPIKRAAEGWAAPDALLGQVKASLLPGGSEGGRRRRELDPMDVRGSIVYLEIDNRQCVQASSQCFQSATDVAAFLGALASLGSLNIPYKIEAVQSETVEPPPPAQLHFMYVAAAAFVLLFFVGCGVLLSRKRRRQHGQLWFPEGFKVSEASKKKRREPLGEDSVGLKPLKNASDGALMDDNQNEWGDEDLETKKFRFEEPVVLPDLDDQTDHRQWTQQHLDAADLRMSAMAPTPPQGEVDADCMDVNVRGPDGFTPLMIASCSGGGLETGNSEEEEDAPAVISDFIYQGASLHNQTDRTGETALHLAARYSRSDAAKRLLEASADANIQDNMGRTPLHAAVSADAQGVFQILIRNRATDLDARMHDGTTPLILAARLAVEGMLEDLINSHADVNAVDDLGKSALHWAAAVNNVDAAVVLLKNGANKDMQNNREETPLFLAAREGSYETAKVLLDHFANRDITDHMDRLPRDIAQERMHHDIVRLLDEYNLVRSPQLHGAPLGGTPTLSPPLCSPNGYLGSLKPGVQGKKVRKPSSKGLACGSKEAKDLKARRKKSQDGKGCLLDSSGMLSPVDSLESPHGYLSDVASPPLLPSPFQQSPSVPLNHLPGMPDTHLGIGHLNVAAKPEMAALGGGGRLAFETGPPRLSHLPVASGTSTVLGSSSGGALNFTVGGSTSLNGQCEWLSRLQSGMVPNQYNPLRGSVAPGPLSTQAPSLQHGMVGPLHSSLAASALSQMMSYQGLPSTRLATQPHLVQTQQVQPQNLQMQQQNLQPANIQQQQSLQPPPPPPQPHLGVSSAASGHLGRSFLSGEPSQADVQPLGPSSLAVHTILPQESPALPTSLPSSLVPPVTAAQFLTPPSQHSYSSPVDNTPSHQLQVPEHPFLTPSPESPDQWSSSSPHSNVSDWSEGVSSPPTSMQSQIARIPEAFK
UniProt P29279, residues 27-349: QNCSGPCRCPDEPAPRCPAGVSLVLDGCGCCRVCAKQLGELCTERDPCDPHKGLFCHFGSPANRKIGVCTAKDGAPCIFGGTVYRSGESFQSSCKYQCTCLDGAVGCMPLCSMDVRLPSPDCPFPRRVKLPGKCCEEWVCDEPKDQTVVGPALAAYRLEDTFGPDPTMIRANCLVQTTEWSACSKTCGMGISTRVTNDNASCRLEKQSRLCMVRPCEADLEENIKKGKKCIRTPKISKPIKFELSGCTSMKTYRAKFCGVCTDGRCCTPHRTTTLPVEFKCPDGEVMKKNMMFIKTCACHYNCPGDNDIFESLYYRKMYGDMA

Target: Notch1 receptor (human (endogenous in MHCC-97 H and SNU-398)) (UniProt P46531)
Assay: co-IP; MHCC-97 H and SNU-398 cells incubated with CAF-EVs for 24 h, lysed with RIPA buffer; extracts incubated with CTGF or Notch1 antibodies overnight at 4 °C, Protein A/G PLUS-Agarose 4 h at 4 °C; immunoblot with anti-CTGF or anti-Notch1 (reciprocal)

- binding: binds
Substance: Connective tissue growth factor (CTGF) (from UniProt P29279 27-349)
